Values joined by “and” are separate entries in the source; they are usually repeats but may differ in a detail not shown here. Identical values can stand only once. Like-named read-outs stand apart in the source and are kept apart here. At least one structure is not confirmed: it was looked up by name or label, or the drawing left a doubt. Some entries repeat one wording, which the source may state once for all of them.
Tests used:
human PC-3 cells = tested on: human PC-3 cells
Description: Xenograft models in immunosuppressed mice were used to determine the antitumour activity in living organisms.
Use was made primarily of a prostate carcinoma model with hormone-independent human PC-3 cells in male nude mice (NMRI-nude (nu/nu) mice, Taconic M&B A/S). To this end, 3 million tumour cells (suspended in medium+Matrigel 1:1, final 0.1 ml) were injected subcutaneously into the side of each animal. When the tumours extended to an area of 20-30 mm^2, the mice were randomized into therapy groups and therapy was initiated. […] At this point in time, the experiment was terminated in all groups and the prepared tumours were weighed.
The T/C value was calculated as primary success parameter using the effect on the final tumour weight: mean tumour weight in the treatment group divided by mean of the tumour weight in the vehicle group.
Administration route: oral
Vehicle: PEG400/ethanol/Solutol HS 15 (70/5/25, v/v/v)
Administration volume: 10 ml/kg
Number of mice: see Table 8

human ACC1 = assay: Human ACC1 enzyme assay (ADP-Glo); assay type: biochemical
Description: Typical concentrations were in the range of 1.75 μl.

CO[C@]1(C)CC[C@]2(CC1)NC(=O)C(c1cc(-c3ccc(Cl)cc3)ccc1C)=C2O [Example V.1-a, (5r,8r)-3-(4′-Chloro-4-methylbiphenyl-3-yl)-4-hydroxy-8-methoxy-8-methyl-1-azaspiro[4.5]dec-3-en-2-one]
therapeutic efficacy (defined as T/C <=0.50) (human PC-3 cells; 100 mg/kg, administration 2 times per day): therapeutic efficacy
therapeutic efficacy (defined as T/C <=0.50) (human PC-3 cells; 100 mg/kg, administration once per day): therapeutic efficacy

CO[C@]1(C(F)(F)F)CC[C@]2(CC1)NC(=O)C(c1cc(-c3ccc(Cl)c(F)c3)ccc1C)=C2O [Example 1-2, (5r,8r)-3-(4′-Chloro-3′-fluoro-4-methylbiphenyl-3-yl)-4-hydroxy-8-methoxy-8-(trifluoromethyl)-1-azaspiro[4.5]dec-3-en-2-one]
Selectivity ACC1 vs. ACC2 (mean of the individual measurements ± standard deviation) (human ACC1): 21.6 ± 5.9
Ratio IC50s ACC2/ACC1 (respective measurement) (human ACC1; pairwise, same dilution series): 29.9 and 18.1 and 16.9
therapeutic efficacy (defined as T/C <=0.50) (human PC-3 cells; 40 mg/kg, administration 2 times per day): therapeutic efficacy
therapeutic efficacy (defined as T/C <=0.50) (human PC-3 cells; 80 mg/kg, administration 2 times per day): therapeutic efficacy

CO[C@]1(C)CC[C@]2(CC1)NC(=O)C(c1cc(-c3ccc(Cl)c(F)c3)ccc1C)=C2O [Example V.2-a, (5r,8r)-3-(4′-Chloro-3′-fluoro-4-methylbiphenyl-3-yl)-4-hydroxy-8-methoxy-8-methyl-1-azaspiro[4.5]dec-3-en-2-one]
therapeutic efficacy (defined as T/C <=0.50) (human PC-3 cells; 40 mg/kg, administration once per day): no therapeutic efficacy
therapeutic efficacy (defined as T/C <=0.50) (human PC-3 cells; 80 mg/kg, administration once per day): therapeutic efficacy

Reference: patent US9278925B2, “Substituted 3-(biphenyl-3-yl)-4-hydroxy-8-methoxy-1-azaspiro[4.5]dec-3-en-2-one” (BAYER INTELLECTUAL PROPERTY GMBH, priority 2011, dated 2016)
